# Laboratory results from US20170258871A1, “COMBINED USE OF A TRKA INHIBITOR AND AN EPHA2 INHIBITOR FOR USING IN THE TREATMENT OF SOLID CANCERS, AND METHOD FOR THE PROGNOSIS OF SURVIVAL OF A PATIENT WHO HAS A SOLID CANCER” (UNIVERSITE DES SCIENCES ET TECHNOLOGIES DE LILLE, priority 2014, published 2017).
# At least one compound was matched to its structure with a doubt left.
# Key:
# Akt = assay: Western blot of Akt phosphorylation in MDA-MB-231 cells; type: cell-based; conditions: proNGF N.C. 30 min; 10 nM K252a, 15 μM LY294002, 50 nM SKI-1 or siEphA2
# Description: (§1) FIG. 8: A study of the role of TrkA and EphA2 in the activation of proteins Akt and Src. Cells MDA-MB-231 were respectively treated with a TrkA inhibitor (K252a), an anti-EphA2 siRNA (siEphA2), an inhibitor of PI3-K (LY294002) and an inhibitor of Src (SKI-1).
# (§2) A and D. Cells MDA-MB-231 HA-TrkA were treated with proNGF N.C. […] The phosphorylation of Akt and Src was determined by using phospho-specific antibodies. The equal charge was verified using Akt and Src antibodies.
# (§3) C and F. The phosphorylation of Akt and Src was determined in the total lysates coming from cells MDA-MB-231 transfected with siEphA2 and treated for 30 minutes with proNGF N.C. (C) or NGF (F).
# (§4) After treatment, the cells were lysed (lysis buffer: 40 mM HEPES pH 7.5; 1 mM EDTA pH 8.0; 120 mM NaCl; 10 mM NaPPi; 50 mM NaF; 1.5 mM Na3VO4; 1% Triton X 100; 0.1% SDS; 1 mM PMSF; 10% glycerol and 1/100 th of protease inhibitor cocktail (Sigma) (20 min; 4° C.)). The lysates were recovered and clarified by centrifugation (12,000 g; 10 min; 4° C.). The supernatant was then stored at −80° C. until use. […] The membranes were placed in an image analyser (LAS 4000; Fuji) connected to a computer which allowed image generation (software Image Reader LAS 4000). […]
# Src = assay: Western blot of Src phosphorylation in MDA-MB-231 cells; type: cell-based; conditions: proNGF N.C. 30 min; 10 nM K252a, 15 μM LY294002, 50 nM SKI-1 or siEphA2
# Description: as §1, §2, §3, §4
smiles,measurement,setting,value
O=c1cc(N2CCOCC2)oc2c(-c3ccccc3)cccc12 [LY294002],effect on Akt activation induced by proNGF,Akt,inhibition of Akt activation
same,effect on Src activation induced by proNGF,Src,does not modify the phosphorylation of Src
